In this test the target is T1, N-terminally Strep-tagged RAF1 from Synechocystis sp. PCC 6803 (Synechocystis sp. PCC 6803) (UniProt Q55875).
T1 sequence: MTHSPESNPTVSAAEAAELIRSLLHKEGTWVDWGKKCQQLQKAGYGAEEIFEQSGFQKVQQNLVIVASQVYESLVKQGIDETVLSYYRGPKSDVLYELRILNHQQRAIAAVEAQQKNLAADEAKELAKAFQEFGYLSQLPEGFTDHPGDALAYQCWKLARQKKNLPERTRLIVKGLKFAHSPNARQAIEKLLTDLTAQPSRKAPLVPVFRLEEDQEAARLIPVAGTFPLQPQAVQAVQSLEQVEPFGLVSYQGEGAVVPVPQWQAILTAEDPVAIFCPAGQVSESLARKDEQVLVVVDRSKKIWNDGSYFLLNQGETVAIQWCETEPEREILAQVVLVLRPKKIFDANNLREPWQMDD
As to the kind of experiment: affinity purification with mass spectrometry; 20 µg of N- or C-terminally Strep-tagged RAF1 added to wild-type Synechocystis crude extract (1 mg protein), 5 min RT, then Strep-Tactin Superflow Plus resin 15 min RT; washed with 20 mM Tris pH 8.0, 150 mM NaCl; eluted with 2.5 mM d-desthiobiotin; silver-stained SDS-PAGE bands identified by mass spectrometry; only the target purified.

Sequences of proteins named here, by UniProt entry; tags and fusion partners are left off.
UniProt P22358: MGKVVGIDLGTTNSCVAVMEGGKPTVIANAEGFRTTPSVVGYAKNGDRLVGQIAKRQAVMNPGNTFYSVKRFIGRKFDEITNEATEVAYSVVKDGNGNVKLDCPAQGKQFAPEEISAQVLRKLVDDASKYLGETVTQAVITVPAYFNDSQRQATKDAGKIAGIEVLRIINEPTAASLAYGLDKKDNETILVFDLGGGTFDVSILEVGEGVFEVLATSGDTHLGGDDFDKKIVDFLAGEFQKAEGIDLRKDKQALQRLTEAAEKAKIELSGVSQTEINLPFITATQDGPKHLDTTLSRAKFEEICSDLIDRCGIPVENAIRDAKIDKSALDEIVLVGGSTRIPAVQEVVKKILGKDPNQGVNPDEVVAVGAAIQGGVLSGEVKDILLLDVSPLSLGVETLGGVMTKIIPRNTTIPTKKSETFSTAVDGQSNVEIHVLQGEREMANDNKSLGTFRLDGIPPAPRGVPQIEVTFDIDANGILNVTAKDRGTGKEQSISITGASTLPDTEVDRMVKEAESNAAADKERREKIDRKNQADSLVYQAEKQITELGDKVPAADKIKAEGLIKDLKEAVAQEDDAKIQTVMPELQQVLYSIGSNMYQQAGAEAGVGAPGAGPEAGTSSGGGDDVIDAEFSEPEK

Results are given in words; binding and its absence hold for the method and conditions named. Binding seen in cells or lysates may run through a third protein. A yes stands for co-enrichment or nearness to the bait. Other partners may have been found. Tags and fused reporters may be left off the sequences shown.

Turning to “Cpn60, endogenous in Synechocystis sp. PCC 6803”, the binding result is reported as “binds”.

On to “DnaK2, endogenous in Synechocystis sp. PCC 6803 (from UniProt P22358 1-636)”, for which the binding entry is “binds”.

The record behind these values is PMC5387032 (Photosynthesis Research, 2017).
